For part of its entries the source gives two or more results. The other results are left out here. There may be further records. Values that stand side by side differ, and nothing given here explains why; they may come from other doses, times, organisms or constructs than stated.
Test system: BRD4, Pol II ser 2 phos, H3K27ac occupancy
Assay: ChIP-seq of BRD4, Pol II ser 2 phos, H3K27ac in KARPAS422 cells
Conditions: ChIP-seq

With CNC(=O)COc1cc2cc(Nc3nc(N4CCC(C(=O)NCCCCCCCNC(=O)C[C@@H]5N=C(c6ccc(Cl)cc6)c6c(sc(C)c6C)-n6c(C)nnc65)CC4)ncc3Cl)cc(OC)c2n(C)c1=O the “Loss of BRD4 from enhancers and super enhancers” value was 10% and ~ 10% and less than 10%.

— patent publication US12685777B2, “Compositions, systems, and methods for modulating a target gene” (The Board of Trustees of the Leland Stanford Junior …, priority 2022, dated 2026)
